From publication PMC10151520, “TapA acts as specific chaperone in TasA filament formation by strand complementation” (Proceedings of the National Academy of Sciences of the …, 2023)
No constants are given. Whether binding was seen depends on the method and setting. Some binding calls cover weakened binding; strength is not graded here. Blank lines part the entries; values can stand above or below the binder they belong to.

Assays:
[1] = biological target: TapA_(60-190) (B. subtilis 168) (UniProt P40949); assay: SEC; gel filtration of TapA constructs after DTT treatment; both purified
[2] = biological target: T1, TasA (mature protein, residues 28 to 261) (Bacillus subtilis) (UniProt P54507); assay: AUC; sedimentation velocity of mixtures: 100 µM TasA with TapA (100, 70, 10, 4, 2 or 1 µM), TapA variants (100 µM) or 250 µM peptide; 20 °C, 20 mM Na phosphate pH 7.0, 150 mM NaCl, 40,000 rpm, runs of 17 h; both purified
T1 sequence: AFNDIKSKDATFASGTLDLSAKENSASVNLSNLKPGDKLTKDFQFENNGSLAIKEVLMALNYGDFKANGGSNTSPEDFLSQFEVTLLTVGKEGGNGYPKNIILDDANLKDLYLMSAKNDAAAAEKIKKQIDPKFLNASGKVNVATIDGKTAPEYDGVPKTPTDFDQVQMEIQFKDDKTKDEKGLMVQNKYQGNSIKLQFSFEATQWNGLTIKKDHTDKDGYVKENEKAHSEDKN

[3] = biological target: TapA_(66-190) (B. subtilis 168) (UniProt P40949); assay: SEC; gel filtration of TapA constructs after DTT treatment; both purified
[4] = biological target: TapA_(75-190) (B. subtilis 168) (UniProt P40949); assay: SEC; gel filtration of TapA constructs, without DTT; both purified
[5] = biological target: TapA (mature protein, residues 44 to 253) (B. subtilis 168) (UniProt P40949); assay: as above
[6] = biological target: TapA (mature protein, residues 44 to 253) (B. subtilis 168) (UniProt P40949); assay: AUC; sedimentation velocity, each protein alone at 100 µM, 20 °C, 20 mM Na phosphate pH 7.0, 150 mM NaCl, 40,000 rpm, runs of 17 h, interference data; both purified
[7] = biological target: T1, TasA (mature protein, residues 28 to 261) (Bacillus subtilis); assay: condition: only at pH 7 with 50 mM NaCl (200 µM TapA in the syringe, 20 µM TasA in the chamber); ITC; TapA (200 µM, syringe) titrated into TasA (20 µM, chamber), 18 °C, pH 7, 50 mM NaCl; both purified
[8] = biological target: TapA_(54-190) (B. subtilis 168) (UniProt P40949); assay: SEC; gel filtration of TapA constructs, without DTT; both purified

B1: TapA_(60-190) (domain or fragment, B. subtilis 168, UniProt P40949 60-190, looked up)
chain: DFQHTDKNCHYDKRWDQSDLHISDQTDTKGTVCSPFALFAVLENTGEKLKKSKWKWELHKLENARKPLKDGNVIEKGFVSNQIGDSLYKIETKKKMKPGIYAFKVYKPAGYPANGSTFEWSEPMRLAKCDE
notes: TapA of Bacillus subtilis 168, residues 60 to 190; Odd number of cysteines (free C68)
binding [1]: no binding (condition: upon DTT treatment)

Binder: AFHDIETFDVSLQTSKDAQ (peptide, UniProt P40949 44-62) [C58SF61A-TapA_(44-62)]
binding [2]: binds weakly

B2: TapA_(66-190) (domain or fragment, B. subtilis 168, UniProt P40949 66-190, looked up)
chain: KNCHYDKRWDQSDLHISDQTDTKGTVCSPFALFAVLENTGEKLKKSKWKWELHKLENARKPLKDGNVIEKGFVSNQIGDSLYKIETKKKMKPGIYAFKVYKPAGYPANGSTFEWSEPMRLAKCDE
notes: TapA of Bacillus subtilis 168, residues 66 to 190; Odd number of cysteines (free C68)
binding [3]: no binding (condition: upon DTT treatment)

Results, then the binder that gave them:

binding [4]: no binding
B3: TapA_(75-190) (domain or fragment, UniProt P40949 75-190)
chain: DQSDLHISDQTDTKGTVCSPFALFAVLENTGEKLKKSKWKWELHKLENARKPLKDGNVIEKGFVSNQIGDSLYKIETKKKMKPGIYAFKVYKPAGYPANGSTFEWSEPMRLAKCDE

binding [5]: no binding
binding [6]: no binding (tested: 100 µM)
binding [7]: no binding
B4: TapA (mature protein, residues 44 to 253) (protein)
chain: AFHDIETFDVSLQTCKDFQHTDKNCHYDKRWDQSDLHISDQTDTKGTVCSPFALFAVLENTGEKLKKSKWKWELHKLENARKPLKDGNVIEKGFVSNQIGDSLYKIETKKKMKPGIYAFKVYKPAGYPANGSTFEWSEPMRLAKCDEKPTVPKKETKSDVKKENETTQKDIPEKTMKEETSQEAVTKEKETQSDQKESGEEDEKSNEADQ

binding [8]: no binding
B5: TapA_(54-190) (domain or fragment, UniProt P40949 54-190)
chain: SLQTCKDFQHTDKNCHYDKRWDQSDLHISDQTDTKGTVCSPFALFAVLENTGEKLKKSKWKWELHKLENARKPLKDGNVIEKGFVSNQIGDSLYKIETKKKMKPGIYAFKVYKPAGYPANGSTFEWSEPMRLAKCDE
